Consider 55 compounds from PubChem BioAssay AID2685 (National Center for Advancing Translational Sciences (NCATS), 2010).

A short description of the assay: qHTS Assay for Lipid Storage Modulators in Drosophila S3 Cells.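 For cell number change: cells counted by Cell Tracker Red CMTPX staining in the red channel.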 As to conditions: BODIPY lipid droplet fluorescence, 18-24 h; for cell number change: measured here: cell count max response, cells fed with added oleic acid. The method, boiled down: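 Drosophila S3 cells got compounds at several concentrations plus oleic acid (400 uM solution). Laser-scanning cytometry with 488 nm excitation read lipid droplets at 500-530 nm and cells at 575-640 nm. Percent activity was relative to 20 uM Triacsin C.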
(In general: In qHTS, concentration-response curves come from the screen itself.)

Where [1] appears, read: measured here: cell number channel AC50, cells fed with added oleic acid.
Setting [2] is: measured here: lipid fluorescence (Fed channel) AC50, cells fed with added oleic acid.

The list shows a part of the results. Shown are side measurements of this screen, not its main read-out; they come without a call. The list favours compounds with an active or inconclusive main result. Potencies come from curve fits of mixed quality, noted in brackets.

As a reminder, the AC50 is the concentration giving half of the maximal activity seen. On to `Cc1ccc(NC(=O)c2nc[nH]c2C(=O)N[C@H](C)c2ccccc2)cc1`, for which the cell number change was -66.9%. Moreover, the AC50 under setting [1] is 20.6 µM [falling, single point].
For `C/C=C/c1ccc(OCC(O)CN2CCCCCCC2)c(OC)c1` (centres undefined), the cell number change was -33.6%. Besides, the AC50 under setting [1] is 20.6 µM [falling, single point]. In addition, under setting [2], the AC50 is 29.1 µM [falling, single point].
With `Cc1ccc(NC(=O)C(CC(C)C)NC(N)=O)cc1` (centres undefined), the cell number change was -42.5%. In addition, the AC50 under setting [1] is 29.1 µM [falling, single point]. Moreover, the AC50 under setting [2] is 18.4 µM [rising, partial curve, poor fit].
For the compound `CC(=O)Nc1sc(-c2ccccc2)nc1-c1ccccc1`, the cell number change stood at 5.4%. In addition, the AC50 under setting [2] was 0.92 µM [falling, full curve].
With `CCOc1ccccc1N1CCN(C(=O)CCCN2C(=O)c3cccc4cccc(c34)C2=O)CC1`, the cell number change is -11.3%. Also, the AC50 under setting [2] is 18.4 µM [falling, single point].
Regarding `O=C(COC(=O)CCC(=O)c1cccs1)NCc1ccco1`, the cell number change is -179%. Moreover, the AC50 under setting [1] is 29.1 µM [falling, single point].
Regarding `Cc1nn(-c2ccccc2)c2c1C(c1ccc([N+](=O)[O-])cc1)C(C#N)=C(N)O2` (centres undefined), the cell number change is 19.7%. The AC50 under setting [1] was 0.651 µM [rising, full curve, poor fit]. The AC50 under setting [2] was 13 µM [falling, partial curve].
On to `Cc1ccc(C)c(NS(=O)(=O)c2cc(C(N)=O)ccc2C)c1`, for which the AC50 is 0.13 µM [rising, full curve, poor fit] under setting [1] and 0.13 µM [rising, full curve, poor fit] under setting [2].
`CC1CCCCN1C(=O)CSc1nnc(-c2c[nH]c3ccccc23)o1` (centres undefined): the cell number change amounted to 15.7%. Further, under setting [1], the AC50 was 0.103 µM [rising, full curve, poor fit]. The AC50 under setting [2] is 0.184 µM [rising, full curve].
With `Cc1ccc(NC(=O)c2sc3nc[nH]c(=O)c3c2C)c(C)c1`, the cell number change worked out at 7.91%. Besides, the AC50 under setting [2] is 8.2 µM [falling, partial curve, poor fit].
In the case of `CCOC(=O)C1CCCCN1Cc1ccc(F)cc1` (centres undefined), the cell number change is -92.2%. The AC50 under setting [1] was 32.6 µM [falling, partial curve]. The AC50 under setting [2] was 0.731 µM [rising, full curve, poor fit].
As to `CCOc1ccc(NC(=O)CN2C(=O)COc3ccc(S(=O)(=O)N4CCCCC4)cc32)cc1`, the cell number change came out at 20.3%. Also, the AC50 under setting [2] was 13 µM [rising, partial curve].
In the case of `COCCCNC(=O)Cn1cnc2sc(C)c(S(=O)(=O)N3CC(C)CC(C)C3)c2c1=O` (centres undefined), the cell number change is 11.1%.
With `N#C/C(=C(/O)Cc1ccccc1)P(=O)(c1ccccc1)c1ccccc1`, the cell number change was determined as 27.7%.
Regarding `NC(=O)c1ccc(NC(=O)c2ccc(CN3CCOCC3)cc2)cc1`, the cell number change is -35.9%. Besides, the AC50 under setting [1] is 3.66 µM [falling, full curve]. Moreover, the AC50 under setting [2] is 29.1 µM [falling, single point].
Regarding `O=C(Nc1ccccc1)c1ccccc1N=Cc1cccc(O)c1`, the cell number change is -50.4%. Also, the AC50 under setting [1] was 20.6 µM [falling, single point]. The AC50 under setting [2] was 29.1 µM [falling, single point].
For the compound `S=C(c1ccc(-c2ccc(Br)cc2)o1)N1CCOCC1`, the cell number change was -20.1%.
For the compound `Cc1cc(=O)oc2cc(OCC(=O)OCC(=O)Nc3ccccc3F)ccc12`, the cell number change is -27.8%. Further, the AC50 under setting [1] is 1.64 µM [falling, full curve, poor fit]. The AC50 under setting [2] was 2.59 µM [falling, full curve, poor fit].
In the case of `CCOc1ccccc1NC(=O)NC1Cc2ccccc2C1`, the cell number change was found to be 22.2%. Besides, the AC50 under setting [2] is 29.1 µM [rising, single point].
Regarding `Cc1nc(-c2ccc(F)cc2)c(CC(=O)N(C)CC(=O)Nc2ccccc2Br)s1`, the cell number change was determined as 0.223%.
On to `CCCCCN(C(=O)CCC(=O)OCc1cc(C)ccc1C)c1c(N)n(CCCC)c(=O)[nH]c1=O`, for which the cell number change is -5.77%. Also, the AC50 under setting [2] is 0.206 µM [falling, full curve, poor fit].
Turning to `O=C(COC(=O)c1ccccc1C(=O)N1CCN(c2ccccc2)CC1)NCc1ccccc1`, the cell number change turned out to be 18.2%. Also, the AC50 under setting [1] was 0.092 µM [falling, full curve, poor fit]. Besides, under setting [2], the AC50 is 0.103 µM [falling, full curve, poor fit].
In the case of `CCOc1ccc(CCNC(=O)CCn2ccc3cc(S(=O)(=O)N4CCCC4)ccc32)cc1`, the cell number change was found to be 10.4%. Also, the AC50 under setting [2] is 2.59 µM [rising, single point].
Turning to `Cc1cc(O)c(-c2cc(C(=O)NCc3ccc4c(c3)OCO4)[nH]n2)cc1C`, the cell number change was -25.8%. The AC50 under setting [2] was 29.1 µM [rising, single point].
Consider `COc1ccccc1-c1nnc2sc(-c3cc4ccccc4o3)nn12`, for which the AC50 under setting [2] is 0.058 µM [rising, full curve, poor fit].
Take `CCc1ccc(CNC(=O)CCS(=O)(=O)Cc2ccc(C)cc2)cc1`: the AC50 under setting [2] was 29.1 µM [rising, single point].
Consider `CCn1cc(C(=O)N2CCN(c3ccc(OC)cc3)CC2)c(=O)c2cc(S(=O)(=O)N3CCOCC3)ccc21`, for which the cell number change was determined as 4.59%. The AC50 under setting [2] was 4.61 µM [rising, single point].
For `Cc1ccc(N(C)S(=O)(=O)c2cccc(C(=O)OCC(=O)N3CCCC(C)C3)c2)cc1` (centres undefined), the cell number change was 28.3%. In addition, the AC50 under setting [2] is 2.06 µM [rising, partial curve, poor fit].
For the compound `COc1cc2c(cc1OC)C(C1(O)CCCCC1)NCC2` (centres undefined), the cell number change came out at 15.9%. Under setting [2], the AC50 was 0.13 µM [falling, full curve, poor fit].
Turning to `CC(C)c1ccc(-n2c(-c3ccccc3)c[n+]3c2CCc2ccccc2-3)cc1`, the cell number change was -65.4%.
`CC(=O)N1Cc2cc(N)ccc2Oc2ccccc21`: the cell number change turned out to be 33.9%. Under setting [1], the AC50 is 0.411 µM [rising, full curve].
For `Cc1cc(C(=O)NC(C)C2CC2)c(Cl)cc1Cl` (centres undefined), the cell number change was determined as 7.3%. For the same compound, the AC50 under setting [2] is 0.82 µM [rising, full curve].
For the compound `Cc1cccc(C)c1NC(=O)C(C)Sc1nnc(C)n1CC1CCCO1` (centres undefined), the cell number change is -21%. For the same compound, under setting [2], the AC50 is 1.16 µM [falling, full curve].
For the compound `O=C(CCCCn1c(=O)[nH]c2ccsc2c1=O)NCC1CCCO1` (centres undefined), the cell number change came out at 2.22%. Moreover, the AC50 under setting [1] is 0.82 µM [falling, full curve, poor fit]. In addition, under setting [2], the AC50 was 0.651 µM [falling, full curve].
With `N#CCc1ccc(NS(=O)(=O)c2ccc(C3CCCCC3)cc2)cc1`, the cell number change is -24.8%. Also, the AC50 under setting [2] was 16.4 µM [falling, single point].
With `COc1ccc(NC(=O)c2cc(S(=O)(=O)N3CCCCC3)c[nH]2)c(OC)c1`, the cell number change came to 13.5%.
Take `CCOc1ccc(NC(=O)NC23CC4CC(CC(C4)C2)C3)cc1`: the cell number change was -10.7%. Also, the AC50 under setting [2] is 5.17 µM [falling, partial curve].
On to `CC(C)C[C@H](NC(=O)c1nc[nH]c1C(=O)NC1CCN(C(=O)OC(C)(C)C)CC1)C(=O)OC(C)(C)C`, for which the cell number change is -33.4%. Under setting [1], the AC50 was 16.4 µM [falling, single point]. Besides, the AC50 under setting [2] was 18.4 µM [falling, partial curve].
As for `O=C(O)c1cc(-c2ccc(Cl)s2)nc2ccccc12`, the cell number change is 43.4%. For the same compound, under setting [1], the AC50 was 5.8 µM [rising, partial curve, poor fit]. Further, under setting [2], the AC50 was 1.84 µM [rising, partial curve, poor fit].
As to `COc1cc(C(C)=O)ccc1COc1ccc(C(=O)OCC(=O)NC2CCS(=O)(=O)C2)cc1OC` (centres undefined), the cell number change amounted to 42.5%. In addition, under setting [1], the AC50 was 8.2 µM [rising, partial curve]. For the same compound, the AC50 under setting [2] was 2.06 µM [rising, partial curve, poor fit].
As for `O=C(O)c1ccc2c(c1)C(=O)N(c1nccs1)C2=O`, the cell number change is -37.4%. In addition, under setting [1], the AC50 is 25.9 µM [falling, single point]. Under setting [2], the AC50 is 16.4 µM [falling, partial curve].
For the compound `Cc1onc(-c2ccccc2)c1C(=O)Nc1cccc(C#N)c1`, the cell number change stood at 75%. Besides, under setting [1], the AC50 was 16.4 µM [rising, single point].
Regarding `Cc1ccc(C(=O)CC2(O)C(=O)N(C)c3ccccc32)o1` (centres undefined), the cell number change was -116%. Besides, under setting [1], the AC50 was 25.9 µM [falling, partial curve]. Also, the AC50 under setting [2] was 20.6 µM [falling, partial curve].
Take `O=C(/C=C/c1ccc([N+](=O)[O-])cc1)NCCN1C(=O)S/C(=C\c2ccc(F)cc2)C1=O`: the cell number change is -2.55%.
For `CN(CC(=O)Nc1cccc(F)c1)C(=O)c1ccc2c(c1)CC(c1ccccc1)OC2=O` (centres undefined), the cell number change came out at 8.61%. The AC50 under setting [1] was 4.61 µM [falling, single point].
As to `OCCNc1c2ccccc2nc2c(F)c(F)c(F)c(F)c12`, the cell number change was -36.4%. The AC50 under setting [1] is 3.66 µM [falling, full curve]. For the same compound, under setting [2], the AC50 is 2.59 µM [falling, full curve].
On to `CC(=O)c1ccc(Oc2cc(-c3ccccc3)nc(-c3ccccc3)n2)cc1`, for which the cell number change was 10.8%.
Consider `COc1ccc(C2=NS(=O)(=O)N(C)C(C(=O)Nc3ccc4c(c3)OCO4)=C2)cc1`, for which the cell number change was found to be 16.2%. Under setting [2], the AC50 is 29.1 µM [falling, single point].
`CC(=O)Oc1ccc2c(c1)c(C(C)=O)c(C)n2C`: under setting [1], the AC50 was 2.31 µM [rising, partial curve].
On to `COC(=O)Nc1ccc(S(=O)(=O)Nc2cnc3ccccc3n2)cc1`, for which the cell number change was found to be 13.1%.
For `CCOC(=O)c1c(C)n(C)c2c1cc(OC(C)=O)c1ccccc12`, the cell number change was determined as 17.2%.
In the case of `Cc1onc(-c2c(F)cccc2Cl)c1C(=O)Nc1nnc(C(F)(F)F)s1`, the cell number change came to 19.7%. Further, under setting [2], the AC50 is 0.013 µM [rising, full curve, poor fit].
On to `COc1cc2ccccc2cc1C(=O)N(CCN(C)C)c1nc2c(F)cc(F)cc2s1`, for which the cell number change is 12.2%. Also, the AC50 under setting [1] is 0.0411 µM [rising, full curve, poor fit]. In addition, the AC50 under setting [2] was 32.6 µM [rising, single point].
As for `CC(=O)Nc1ccc(C(=O)Nc2cccc(S(=O)(=O)N(C)c3ccccc3)c2)cc1`, the cell number change was -20.8%. The AC50 under setting [2] was 0.411 µM [falling, full curve, poor fit].
In the case of `CC(C)(C)[C@@H]1C=C(C(=O)N2CCN(Cc3ccc4c(c3)OCO4)CC2)O[C@H](OCc2ccc(CO)cc2)C1`, the cell number change is -5.65%. Also, the AC50 under setting [2] was 23.1 µM [falling, partial curve, poor fit].
